Reference: PubChem BioAssay AID1259405 (NCATS, 2018)
Assay: 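Knock-downs that lift recombinant protein yield in hamster ovary cells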 (primary screen). System: Chinese hamster CHO-K1 ovary cells with stable secreted eGFP expression. Reagents: single siRNA against mouse genes, 0.8 pmol siRNA per well (2 µl of 400 nM stock). Duration: 3 days. Measured: 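Percent of the per-plate non-targeting control median for intracellular GFP per well by laser scanning cytometry and for cell viability by ATP luminescence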. Scale: GFP, % of control: higher = more GFP per well, higher productivity; viability (ATP), % of control: higher = more viable cells (more ATP). Call rule: 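Called active when intracellular GFP, relative to negative control, is at or above 120%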.
Here is one part, drawn at random, of about 50,000 reagents. About 4,000 of them (8%) were called active. 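Mouse siRNA library applied to hamster cells; one well for each siRNA.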 Reagents against one gene are numbered here. No sequences are given here.

{"Gene": "Ykt6 (GeneID 56418)", "reagent": 1, "GFP, % of control": 83.7, "viability (ATP), % of control": 85.1, "call": "inactive"}
{"Gene": "Ykt6 (GeneID 56418)", "reagent": 2, "GFP, % of control": 75.4, "viability (ATP), % of control": 78.9, "call": "inactive"}
{"Gene": "Ykt6 (GeneID 56418)", "reagent": 3, "GFP, % of control": 76, "viability (ATP), % of control": 75.8, "call": "inactive"}
{"Gene": "Abhd2 (GeneID 54608)", "reagent": 1, "GFP, % of control": 49.5, "viability (ATP), % of control": 69.9, "call": "inactive"}
{"Gene": "Abhd2 (GeneID 54608)", "reagent": 2, "GFP, % of control": 112, "viability (ATP), % of control": 89.3, "call": "inactive"}
{"Gene": "Abhd2 (GeneID 54608)", "reagent": 3, "GFP, % of control": 9.78, "viability (ATP), % of control": 39.5, "call": "inactive"}
{"Gene": "Psd3 (GeneID 234353)", "reagent": 1, "GFP, % of control": 104, "viability (ATP), % of control": 87.9, "call": "inactive"}
{"Gene": "Psd3 (GeneID 234353)", "reagent": 2, "GFP, % of control": 96.2, "viability (ATP), % of control": 65, "call": "inactive"}
{"Gene": "Psd3 (GeneID 234353)", "reagent": 3, "GFP, % of control": 66.6, "viability (ATP), % of control": 72.4, "call": "inactive"}
{"Gene": "Rhobtb2 (GeneID 246710)", "reagent": 1, "GFP, % of control": 77.3, "viability (ATP), % of control": 70.8, "call": "inactive"}
{"Gene": "Rhobtb2 (GeneID 246710)", "reagent": 2, "GFP, % of control": 73.7, "viability (ATP), % of control": 80.6, "call": "inactive"}
{"Gene": "Rhobtb2 (GeneID 246710)", "reagent": 3, "GFP, % of control": 53.8, "viability (ATP), % of control": 81.9, "call": "inactive"}
{"Gene": "Iigp1 (GeneID 60440)", "reagent": 1, "GFP, % of control": 91.1, "viability (ATP), % of control": 99.4, "call": "inactive"}
{"Gene": "Iigp1 (GeneID 60440)", "reagent": 2, "GFP, % of control": 55.7, "viability (ATP), % of control": 69.6, "call": "inactive"}
{"Gene": "Iigp1 (GeneID 60440)", "reagent": 3, "GFP, % of control": 72.7, "viability (ATP), % of control": 92.9, "call": "inactive"}
{"Gene": "Gcfc2 (GeneID 330361)", "reagent": 1, "GFP, % of control": 63.5, "viability (ATP), % of control": 77.9, "call": "inactive"}
{"Gene": "Gcfc2 (GeneID 330361)", "reagent": 2, "GFP, % of control": 56.4, "viability (ATP), % of control": 89.5, "call": "inactive"}
{"Gene": "Gcfc2 (GeneID 330361)", "reagent": 3, "GFP, % of control": 80, "viability (ATP), % of control": 89.1, "call": "inactive"}
{"Gene": "Stard4 (GeneID 170459)", "reagent": 1, "GFP, % of control": 148, "viability (ATP), % of control": 93.1, "call": "active"}
{"Gene": "Stard4 (GeneID 170459)", "reagent": 2, "GFP, % of control": 97.3, "viability (ATP), % of control": 71.1, "call": "inactive"}
{"Gene": "Stard4 (GeneID 170459)", "reagent": 3, "GFP, % of control": 102, "viability (ATP), % of control": 106, "call": "inactive"}
{"Gene": "Hprt1 (GeneID 15452)", "reagent": 1, "GFP, % of control": 38.7, "viability (ATP), % of control": 87.6, "call": "inactive"}
{"Gene": "Hprt1 (GeneID 15452)", "reagent": 2, "GFP, % of control": 96, "viability (ATP), % of control": 101, "call": "inactive"}
{"Gene": "Hprt1 (GeneID 15452)", "reagent": 3, "GFP, % of control": 84.6, "viability (ATP), % of control": 89, "call": "inactive"}
{"Gene": "Wnt1 (GeneID 22408)", "reagent": 1, "GFP, % of control": 57.3, "viability (ATP), % of control": 49.5, "call": "inactive"}
{"Gene": "Wnt1 (GeneID 22408)", "reagent": 2, "GFP, % of control": 93.7, "viability (ATP), % of control": 73.4, "call": "inactive"}
{"Gene": "Wnt1 (GeneID 22408)", "reagent": 3, "GFP, % of control": 106, "viability (ATP), % of control": 57.7, "call": "inactive"}
{"Gene": "Edrf1 (GeneID 214764)", "reagent": 1, "GFP, % of control": 95.7, "viability (ATP), % of control": 29.2, "call": "inactive"}
{"Gene": "Edrf1 (GeneID 214764)", "reagent": 2, "GFP, % of control": 154, "viability (ATP), % of control": 90.5, "call": "active"}
{"Gene": "Edrf1 (GeneID 214764)", "reagent": 3, "GFP, % of control": 110, "viability (ATP), % of control": 117, "call": "inactive"}
{"Gene": "Ebag9 (GeneID 55960)", "reagent": 1, "GFP, % of control": 109, "viability (ATP), % of control": 92, "call": "inactive"}
{"Gene": "Ebag9 (GeneID 55960)", "reagent": 2, "GFP, % of control": 81.8, "viability (ATP), % of control": 86.7, "call": "inactive"}
{"Gene": "Ebag9 (GeneID 55960)", "reagent": 3, "GFP, % of control": 54.4, "viability (ATP), % of control": 86.9, "call": "inactive"}
{"Gene": "Gphn (GeneID 268566)", "reagent": 1, "GFP, % of control": 58.2, "viability (ATP), % of control": 64.3, "call": "inactive"}
{"Gene": "Gphn (GeneID 268566)", "reagent": 2, "GFP, % of control": 107, "viability (ATP), % of control": 39.5, "call": "inactive"}
{"Gene": "Gphn (GeneID 268566)", "reagent": 3, "GFP, % of control": 104, "viability (ATP), % of control": 94.8, "call": "inactive"}
{"Gene": "Or8k25 (GeneID 259022)", "reagent": 1, "GFP, % of control": 70.2, "viability (ATP), % of control": 69.3, "call": "inactive"}
{"Gene": "Or8k25 (GeneID 259022)", "reagent": 2, "GFP, % of control": 67.9, "viability (ATP), % of control": 45.2, "call": "inactive"}
{"Gene": "Or8k25 (GeneID 259022)", "reagent": 3, "GFP, % of control": 61.9, "viability (ATP), % of control": 101, "call": "inactive"}
{"Gene": "Hspa2 (GeneID 15512)", "reagent": 1, "GFP, % of control": 83.6, "viability (ATP), % of control": 71.3, "call": "inactive"}
{"Gene": "Hspa2 (GeneID 15512)", "reagent": 2, "GFP, % of control": 82.5, "viability (ATP), % of control": 88.2, "call": "inactive"}
{"Gene": "Hspa2 (GeneID 15512)", "reagent": 3, "GFP, % of control": 58.7, "viability (ATP), % of control": 108, "call": "inactive"}
{"Gene": "Pum2 (GeneID 80913)", "reagent": 1, "GFP, % of control": 103, "viability (ATP), % of control": 81.3, "call": "inactive"}
{"Gene": "Pum2 (GeneID 80913)", "reagent": 2, "GFP, % of control": 100, "viability (ATP), % of control": 85.4, "call": "inactive"}
{"Gene": "Nap1l5 (GeneID 58243)", "reagent": 1, "GFP, % of control": 124, "viability (ATP), % of control": 78.2, "call": "active"}
{"Gene": "Nap1l5 (GeneID 58243)", "reagent": 2, "GFP, % of control": 76.4, "viability (ATP), % of control": 94.9, "call": "inactive"}
{"Gene": "Nap1l5 (GeneID 58243)", "reagent": 3, "GFP, % of control": 70.2, "viability (ATP), % of control": 50.6, "call": "inactive"}
{"Gene": "Lpar4 (GeneID 78134)", "reagent": 1, "GFP, % of control": 55.9, "viability (ATP), % of control": 52.8, "call": "inactive"}
{"Gene": "Lpar4 (GeneID 78134)", "reagent": 2, "GFP, % of control": 57.1, "viability (ATP), % of control": 69.7, "call": "inactive"}
{"Gene": "Lpar4 (GeneID 78134)", "reagent": 3, "GFP, % of control": 78.1, "viability (ATP), % of control": 72.1, "call": "inactive"}
{"Gene": "Nemf (GeneID 66244)", "reagent": 1, "GFP, % of control": 51.3, "viability (ATP), % of control": 76.7, "call": "inactive"}
{"Gene": "Nemf (GeneID 66244)", "reagent": 2, "GFP, % of control": 77.2, "viability (ATP), % of control": 84.7, "call": "inactive"}
{"Gene": "Nemf (GeneID 66244)", "reagent": 3, "GFP, % of control": 56.4, "viability (ATP), % of control": 62.7, "call": "inactive"}

Only “viability (ATP), % of control” (5 entries from above):
Abhd2 (GeneID 54608) #2 = 89.3
Abhd2 (GeneID 54608) #3 = 39.5
Psd3 (GeneID 234353) #1 = 87.9
Psd3 (GeneID 234353) #2 = 65
Psd3 (GeneID 234353) #3 = 72.4
